Target: SARS‐CoV‐2 PL^pro (Severe acute respiratory syndrome coronavirus 2, UniProt P0DTD1)
Type: biochemical

SMILES: COc1cc2ncnc(Nc3ccc(F)c(Cl)c3)c2cc1OCCCN1CCOCC1 [gefitinib]
- PL^pro inhibition in SPE‐MS assay (in words): inactive

Source: PMC9015526, “Mass Spectrometric Assays Reveal Discrepancies in Inhibition Profiles for the SARS‐CoV‐2 Papain‐Like Protease” (Chemmedchem, 2022)
